Several values for one entry are separate records, joined by “and”; a condition that tells them apart may be missing. Identical values can stand only once.
Assays:
[1] = tested on: immature soybean embryos; assay: Embryo feeding experiments: cyclitols fed to immature soybean embryos, precocious maturation by slow drying, soluble carbohydrates in axis and cotyledons; format: in vivo, Glycine max (L.) Merrill; settings: for increase in concentration after feeding D-chiro-inositol: concentration series, 14 days precocious maturation
[2] = tested on: soybean explants; assay: Soybean explant feeding with 50 mM free cyclitols for one week, soluble carbohydrates in mature seeds; format: in vivo, Glycine max (L.) Merrill cv. Chippewa 64
[3] = tested on: buckwheat embryos; assay: Soluble carbohydrates in buckwheat embryos from seeds matured at 15, 22 or 30° C.; format: in vivo, Fagopyrum esculentum Moench; settings: harvested at 28 DAP and dried 2 weeks at 12% RH, mean ± SE
[4] = tested on: buckwheat explants; assay: Buckwheat explant feeding with 100 mM cyclitol in 1% sucrose for 5 days, soluble carbohydrates in embryos and leaf disks; format: in vivo, Fagopyrum esculentum; settings: replicate values
[5] = tested on: soybean explants; assay: Soybean explant feeding 3 days with 50 mM cyclitol in 1% sucrose, slow drying time course, soluble carbohydrates in axis, cotyledon, seed coat and leaf
[6] = 3 days transport of sucrose (1%) and D-chiro-inositol (50 mM), after 2 days slow drying, Rep 1
[7] = 3 days transport of sucrose (1%) and D-chiro-inositol (50 mM), after 2 days slow drying, Rep 2
[8] = 3 days transport of sucrose (1%) and D-chiro-inositol (50 mM), after 4 days slow drying, Rep 1
[9] = 3 days transport of sucrose (1%) and D-chiro-inositol (50 mM), after 4 days slow drying, Rep 2
[10] = 3 days transport of sucrose (1%) and D-chiro-inositol (50 mM), after 14 days slow drying, Rep 1
[11] = 3 days transport of sucrose (1%) and D-chiro-inositol (50 mM), after 14 days slow drying, Rep 2
[12] = 3 days transport of sucrose (1%) and D-chiro-inositol (50 mM), before slow drying, Rep 1
[13] = 3 days transport of sucrose (1%) and D-chiro-inositol (50 mM), before slow drying, Rep 2
[14] = 3 days transport of sucrose (1%) and D-pinitol (50 mM), after 2 days slow drying, Rep 1
[15] = 3 days transport of sucrose (1%) and D-pinitol (50 mM), after 2 days slow drying, Rep 2

## OCC1O[C@H](OC2C(O)[C@H](O)C(O)C(O)[C@@H]2O)C(O)C(O)[C@H]1O (stereo partly drawn) [Fagopyritol B1, α-D-galactopyranosyl-(1→2)-1D-chiro-inositol]
[1]; axis tissues, 14 days
  reduction after feeding D-pinitol and D-chiro-inositol compared to D-chiro-inositol alone: about 50%
[1]; axis tissues
  increase in concentration after feeding D-chiro-inositol: 17 fold
[1]; cotyledons
  change in accumulation after feeding 25 to 50 mM myo-inositol: reduced
  increase in concentration after feeding D-chiro-inositol: 7 fold
[1]; fed 100 mM D-chiro-inositol alone
  concentration in cotyledons at day 4 of slow drying: 16 mg/g DW
[1]; fed combination of 100 mM D-pinitol and 100 mM D-chiro-inositol
  concentration in cotyledons at day 4 of slow drying: 14 mg/g DW
[2]; axis and cotyledon tissue of mature seeds
  change in concentration after feeding 50 mM myo-inositol to explants: no significant increase
[2]; axis tissues
  increase after feeding 50 mM D-chiro-inositol to explants: 17 fold
[2]; cotyledon tissues
  increase after feeding 50 mM D-chiro-inositol to explants: 20 fold
[3]; seeds matured at 15° C.
  Soluble carbohydrates in buckwheat embryos: 256.00 ± 38.30 μg/embryo
[3]; seeds matured at 22° C.
  Soluble carbohydrates in buckwheat embryos: 219.15 ± 24.20 μg/embryo
[3]; seeds matured at 30° C.
  Soluble carbohydrates in buckwheat embryos: 159.60 ± 7.70 μg/embryo
[4]; fed 100 mM D-chiro-inositol in 1% sucrose solution 5 days, 2 days slow drying
  Soluble carbohydrates in embryos of seeds from buckwheat explants: 127.23 μg/embryo and 635.89 μg/embryo
[4]; fed 100 mM D-chiro-inositol in 1% sucrose solution 5 days, 4 days slow drying
  Soluble carbohydrates in embryos of seeds from buckwheat explants: 125.16 μg/embryo and 388.66 μg/embryo and 270.67 μg/embryo
[4]; fed 100 mM D-chiro-inositol in 1% sucrose solution 5 days, 7 days slow drying
  Soluble carbohydrates in embryos of seeds from buckwheat explants: 298.43 μg/embryo and 190.64 μg/embryo and 208.33 μg/embryo
[4]; fed 100 mM D-chiro-inositol in 1% sucrose solution, after 1 day feeding
  Soluble carbohydrates in embryos of seeds from buckwheat explants: 0 μg/embryo
[4]; fed 100 mM D-chiro-inositol in 1% sucrose solution, after 5 days feeding
  Soluble carbohydrates in embryos of seeds from buckwheat explants: 33.64 μg/embryo and 623.00 μg/embryo and 322.50 μg/embryo
[4]; fed 100 mM D-pinitol in 1% sucrose solution 5 days, 2 days slow drying
  Soluble carbohydrates in embryos of seeds from buckwheat explants: 7.29 μg/embryo and 165.96 μg/embryo and 111.41 μg/embryo
[4]; fed 100 mM D-pinitol in 1% sucrose solution 5 days, 4 days slow drying
  Soluble carbohydrates in embryos of seeds from buckwheat explants: 116.5 μg/embryo and 165.56 μg/embryo and 77.90 μg/embryo
[4]; fed 100 mM D-pinitol in 1% sucrose solution 5 days, 7 days slow drying
  Soluble carbohydrates in embryos of seeds from buckwheat explants: 64.64 μg/embryo and 77.20 μg/embryo and 119.44 μg/embryo
[4]; fed 100 mM D-pinitol in 1% sucrose solution, after 1 day feeding
  Soluble carbohydrates in embryos of seeds from buckwheat explants: 1.44 μg/embryo
[4]; fed 100 mM D-pinitol in 1% sucrose solution, after 5 days feeding
  Soluble carbohydrates in embryos of seeds from buckwheat explants: 0.98 μg/embryo and 90.76 μg/embryo and 75.14 μg/embryo
[4]; fed 100 mM myo-inositol in 1% sucrose solution 5 days, 2 days slow drying
  Soluble carbohydrates in embryos of seeds from buckwheat explants: 300.84 μg/embryo and 129.87 μg/embryo
[4]; fed 100 mM myo-inositol in 1% sucrose solution 5 days, 4 days slow drying
  Soluble carbohydrates in embryos of seeds from buckwheat explants: 111.78 μg/embryo and 183.36 μg/embryo
[4]; fed 100 mM myo-inositol in 1% sucrose solution 5 days, 7 days slow drying
  Soluble carbohydrates in embryos of seeds from buckwheat explants: 79.17 μg/embryo and 188.73 μg/embryo
[4]; fed 100 mM myo-inositol in 1% sucrose solution, after 1 day feeding
  Soluble carbohydrates in embryos of seeds from buckwheat explants: 0 μg/embryo
[4]; fed 100 mM myo-inositol in 1% sucrose solution, after 5 days feeding
  Soluble carbohydrates in embryos of seeds from buckwheat explants: 95.33 μg/embryo and 44.47 μg/embryo
[4]; fed 1% sucrose (without cyclitols) solution 5 days, 2 days slow drying
  Soluble carbohydrates in embryos of seeds from buckwheat explants: 55.08 μg/embryo and 237.27 μg/embryo and 476.65 μg/embryo
[4]; fed 1% sucrose (without cyclitols) solution 5 days, 4 days slow drying
  Soluble carbohydrates in embryos of seeds from buckwheat explants: 89.92 μg/embryo and 72.98 μg/embryo
[4]; fed 1% sucrose (without cyclitols) solution 5 days, 7 days slow drying
  Soluble carbohydrates in embryos of seeds from buckwheat explants: 138.32 μg/embryo and 111.37 μg/embryo
[4]; fed 1% sucrose (without cyclitols) solution, after 5 days feeding
  Soluble carbohydrates in embryos of seeds from buckwheat explants: 0.87 μg/embryo and 151.69 μg/embryo
[5]; [6]
  Accumulation of soluble carbohydrates in soybean axis: 32.08 μg/axis
  Accumulation of soluble carbohydrates in soybean cotyledon: 45.25 μg/cotyledon
  Accumulation of soluble carbohydrates in soybean seed coat: 3.52 μg/seed coat
[5]; [7]
  Accumulation of soluble carbohydrates in soybean axis: 25.93 μg/axis
  Accumulation of soluble carbohydrates in soybean cotyledon: 25.67 μg/cotyledon
  Accumulation of soluble carbohydrates in soybean seed coat: 4.88 μg/seed coat
[5]; [8]
  Accumulation of soluble carbohydrates in soybean axis: 81.94 μg/axis
  Accumulation of soluble carbohydrates in soybean cotyledon: 711.00 μg/cotyledon
  Accumulation of soluble carbohydrates in soybean seed coat: 9.14 μg/seed coat
[5]; [9]
  Accumulation of soluble carbohydrates in soybean axis: 73.53 μg/axis
  Accumulation of soluble carbohydrates in soybean cotyledon: 535.23 μg/cotyledon
  Accumulation of soluble carbohydrates in soybean seed coat: 8.69 μg/seed coat
[5]; [10]
  Accumulation of soluble carbohydrates in soybean axis: 78.96 μg/axis
  Accumulation of soluble carbohydrates in soybean cotyledon: 612.60 μg/cotyledon
  Accumulation of soluble carbohydrates in soybean seed coat: 14.54 μg/seed coat
[5]; [11]
  Accumulation of soluble carbohydrates in soybean axis: 55.76 μg/axis
  Accumulation of soluble carbohydrates in soybean cotyledon: 626.65 μg/cotyledon
  Accumulation of soluble carbohydrates in soybean seed coat: 51.81 μg/seed coat
[5]; [12]
  Accumulation of soluble carbohydrates in soybean axis: 2.04 μg/axis
  Accumulation of soluble carbohydrates in soybean cotyledon: 10.55 μg/cotyledon
[5]; [13]
  Accumulation of soluble carbohydrates in soybean axis: 0 μg/axis
  Accumulation of soluble carbohydrates in soybean cotyledon: 0 μg/cotyledon
[5]; [14]
  Accumulation of soluble carbohydrates in soybean axis: 4.30 μg/axis
  Accumulation of soluble carbohydrates in soybean cotyledon: 4.99 μg/cotyledon
  Accumulation of soluble carbohydrates in soybean seed coat: 0 μg/seed coat
[5]; [15]
  Accumulation of soluble carbohydrates in soybean axis: 2.75 μg/axis
  Accumulation of soluble carbohydrates in soybean cotyledon: 4.57 μg/cotyledon
  Accumulation of soluble carbohydrates in soybean seed coat: 2.10 μg/seed coat
